The values that follow come from paper PMC3650065.

This assay deals with T1, helicase domain of mda-5 as a GAL4 DNA-binding domain fusion (UniProt Q9BYX4).
T1 sequence: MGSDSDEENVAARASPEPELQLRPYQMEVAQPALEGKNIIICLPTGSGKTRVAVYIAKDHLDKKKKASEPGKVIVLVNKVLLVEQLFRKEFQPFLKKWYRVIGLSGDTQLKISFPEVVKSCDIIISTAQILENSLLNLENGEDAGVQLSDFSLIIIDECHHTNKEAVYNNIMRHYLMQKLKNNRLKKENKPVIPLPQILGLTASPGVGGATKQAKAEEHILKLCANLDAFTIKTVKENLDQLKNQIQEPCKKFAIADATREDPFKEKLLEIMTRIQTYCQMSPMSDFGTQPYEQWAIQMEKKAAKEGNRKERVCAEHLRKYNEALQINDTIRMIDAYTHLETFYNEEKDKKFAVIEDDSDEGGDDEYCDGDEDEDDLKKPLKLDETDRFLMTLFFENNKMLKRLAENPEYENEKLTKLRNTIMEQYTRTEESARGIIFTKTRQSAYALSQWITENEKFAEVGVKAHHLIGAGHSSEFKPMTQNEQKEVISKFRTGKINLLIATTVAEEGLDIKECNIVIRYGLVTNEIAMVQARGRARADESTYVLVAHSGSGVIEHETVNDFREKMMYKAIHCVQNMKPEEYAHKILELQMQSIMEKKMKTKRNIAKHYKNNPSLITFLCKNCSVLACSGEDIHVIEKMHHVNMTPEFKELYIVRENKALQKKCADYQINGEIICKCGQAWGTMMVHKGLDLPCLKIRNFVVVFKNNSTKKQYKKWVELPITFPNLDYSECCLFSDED
Kind of assay: two-hybrid; S. cerevisiae PJ69-4α; GAL4 DBD and GAL4 AD fusions; growth on SD-L-W-H + 2 mM 3-AT, up to 6 days at 30°C.

Results are given in words; binding and its absence hold for the method and conditions named. Sequences can lack the tags named with a protein.

B1: LGP2 with helicase motif IV replaced with the equivalent sequence from RIG-I, two-hybrid fusion (protein, UniProt Q96C10 1-368; O95786 630-640; Q96C10 381-678)
chain: MELRSYQWEVIMPALEGKNIIIWLPTGAGKTRAAAYVAKRHLETVDGAKVVVLVNRVHLVTQHGEEFRRMLDGRWTVTTLSGDMGPRAGFGHLARCHDLLICTAELLQMALTSPEEEEHVELTVFSLIVVDECHHTHKDTVYNVIMSQYLELKLQRAQPLPQVLGLTASPGTGGASKLDGAINHVLQLCANLDTWCIMSPQNCCPQLQEHSQQPCKQYNLCHRRSQDPFGDLLKKLMDQIHDHLEMPELSRKFGTQMYEQQVVKLSEAAALAGLQEQRVYALHLRRYNDALLIHDTVRAVDALAALQDFYHREHVTKTQILCAERRLLALFDDRKNELAHLATHGPENPKLEMLEKILQRQFSSSNSPTILFVKTRALVHSLLLWLQQQQGLQTVDIRAQLLIGAGNSSQSTHMTQRDQQEVIQKFQDGTLNLLVATSVAEEGLDIPHCNVVVRYGLLTNEISMVQARGRARADQSVYAFVATEGSRELKRELINEALETLMEQAVAAVQKMDQAEYQAKIRDLQQAALTKRAAQAAQRENQRQQFPVEHVQLLCINCMVAVGHGSDLRKVEGTHHVNVNPNFSNYYNVSRDPVVINKVFKDWKPGGVISCRNCGEVWGLQMIYKSVKLPVLKVRSMLLETPQGRIQAKKWSRVPFSVPDFDFLQHCAENLSDLSLD
Take B1: the binding result is listed as “no binding”.

B2: LGP2(K634E) as a GAL4 activation domain fusion (protein, UniProt Q96C10 1-678)
chain: MELRSYQWEVIMPALEGKNIIIWLPTGAGKTRAAAYVAKRHLETVDGAKVVVLVNRVHLVTQHGEEFRRMLDGRWTVTTLSGDMGPRAGFGHLARCHDLLICTAELLQMALTSPEEEEHVELTVFSLIVVDECHHTHKDTVYNVIMSQYLELKLQRAQPLPQVLGLTASPGTGGASKLDGAINHVLQLCANLDTWCIMSPQNCCPQLQEHSQQPCKQYNLCHRRSQDPFGDLLKKLMDQIHDHLEMPELSRKFGTQMYEQQVVKLSEAAALAGLQEQRVYALHLRRYNDALLIHDTVRAVDALAALQDFYHREHVTKTQILCAERRLLALFDDRKNELAHLATHGPENPKLEMLEKILQRQFSSSNSPRGIIFTRTRQSAHSLLLWLQQQQGLQTVDIRAQLLIGAGNSSQSTHMTQRDQQEVIQKFQDGTLNLLVATSVAEEGLDIPHCNVVVRYGLLTNEISMVQARGRARADQSVYAFVATEGSRELKRELINEALETLMEQAVAAVQKMDQAEYQAKIRDLQQAALTKRAAQAAQRENQRQQFPVEHVQLLCINCMVAVGHGSDLRKVEGTHHVNVNPNFSNYYNVSRDPVVINKVFKDWKPGGVISCRNCGEVWGLQMIYKSVKLPVLEVRSMLLETPQGRIQAKKWSRVPFSVPDFDFLQHCAENLSDLSLD
On to B2, for which the binding result is reported as “no binding”.
